Source: article doi:10.1101/278911
These are yes or no findings as the source states them, for the method shown. Binding seen in cells or lysates may run through a third protein. Some binding calls cover weakened binding; strength is not graded here.

Sequences of proteins named here, by UniProt entry; tags and fusion partners are left off.
UniProt Q09137: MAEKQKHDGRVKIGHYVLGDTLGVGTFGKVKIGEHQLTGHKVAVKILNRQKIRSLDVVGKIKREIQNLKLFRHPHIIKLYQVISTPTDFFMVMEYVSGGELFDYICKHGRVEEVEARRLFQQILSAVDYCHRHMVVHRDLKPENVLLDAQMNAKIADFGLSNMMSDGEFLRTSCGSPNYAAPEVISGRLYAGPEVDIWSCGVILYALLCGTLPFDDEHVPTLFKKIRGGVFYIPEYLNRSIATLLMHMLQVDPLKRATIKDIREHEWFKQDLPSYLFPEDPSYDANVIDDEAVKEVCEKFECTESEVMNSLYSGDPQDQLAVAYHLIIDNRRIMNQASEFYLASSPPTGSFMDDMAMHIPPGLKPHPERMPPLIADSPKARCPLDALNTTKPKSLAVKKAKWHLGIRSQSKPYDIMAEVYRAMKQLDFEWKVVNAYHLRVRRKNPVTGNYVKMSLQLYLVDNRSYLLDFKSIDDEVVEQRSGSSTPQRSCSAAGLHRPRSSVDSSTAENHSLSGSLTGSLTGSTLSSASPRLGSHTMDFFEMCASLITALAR
UniProt P54645: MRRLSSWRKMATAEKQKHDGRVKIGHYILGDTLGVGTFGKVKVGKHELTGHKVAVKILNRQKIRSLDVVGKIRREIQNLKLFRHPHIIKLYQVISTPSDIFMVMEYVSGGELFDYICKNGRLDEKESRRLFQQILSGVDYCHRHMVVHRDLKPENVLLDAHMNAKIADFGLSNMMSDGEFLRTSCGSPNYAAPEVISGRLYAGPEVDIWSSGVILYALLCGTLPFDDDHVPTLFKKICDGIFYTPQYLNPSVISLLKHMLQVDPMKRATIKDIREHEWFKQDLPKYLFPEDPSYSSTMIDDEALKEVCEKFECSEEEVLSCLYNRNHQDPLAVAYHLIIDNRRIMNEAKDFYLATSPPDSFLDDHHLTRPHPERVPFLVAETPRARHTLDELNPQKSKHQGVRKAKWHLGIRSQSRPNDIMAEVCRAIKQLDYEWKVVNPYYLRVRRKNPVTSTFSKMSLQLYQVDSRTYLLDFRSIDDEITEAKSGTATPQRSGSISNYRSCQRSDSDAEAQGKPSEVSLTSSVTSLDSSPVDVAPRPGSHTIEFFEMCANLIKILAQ

Target: T1, TRPC6 channel (rat (endogenous in cultured rat podocytes)) (UniProt Q99N78)
T1 sequence: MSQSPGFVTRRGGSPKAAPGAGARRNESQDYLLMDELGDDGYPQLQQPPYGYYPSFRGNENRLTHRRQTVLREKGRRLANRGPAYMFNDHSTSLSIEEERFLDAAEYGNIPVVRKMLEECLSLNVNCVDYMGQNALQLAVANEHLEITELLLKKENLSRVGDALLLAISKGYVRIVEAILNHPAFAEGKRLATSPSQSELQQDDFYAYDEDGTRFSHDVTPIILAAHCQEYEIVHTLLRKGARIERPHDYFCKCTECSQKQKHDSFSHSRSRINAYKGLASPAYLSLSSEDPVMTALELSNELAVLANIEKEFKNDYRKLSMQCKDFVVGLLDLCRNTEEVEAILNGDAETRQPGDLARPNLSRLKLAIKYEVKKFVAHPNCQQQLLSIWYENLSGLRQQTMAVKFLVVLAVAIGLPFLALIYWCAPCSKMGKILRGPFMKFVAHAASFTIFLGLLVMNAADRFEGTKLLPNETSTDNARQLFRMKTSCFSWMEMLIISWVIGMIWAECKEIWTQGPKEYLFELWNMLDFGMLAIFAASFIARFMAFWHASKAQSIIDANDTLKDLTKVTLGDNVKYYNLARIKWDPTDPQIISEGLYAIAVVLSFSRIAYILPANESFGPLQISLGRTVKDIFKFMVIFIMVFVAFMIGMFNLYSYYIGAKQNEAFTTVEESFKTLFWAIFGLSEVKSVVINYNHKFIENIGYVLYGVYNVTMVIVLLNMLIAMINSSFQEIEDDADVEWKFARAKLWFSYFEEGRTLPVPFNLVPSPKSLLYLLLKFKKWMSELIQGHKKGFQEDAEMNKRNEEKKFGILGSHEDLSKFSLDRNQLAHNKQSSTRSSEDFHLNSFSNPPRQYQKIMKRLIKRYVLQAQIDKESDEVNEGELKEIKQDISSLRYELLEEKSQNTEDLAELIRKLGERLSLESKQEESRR
Test: co-IP

Row | Substance | binding
1 | AMP-activated protein kinase α2 subunit (from UniProt Q09137 1-552) | binds
2 | AMP-activated protein kinase α1 subunit (from UniProt P54645 1-559) | binds
